Laboratory results as given in paper PMC13321232.
These are yes or no findings as the source states them, for the method shown. Binding seen in cells or lysates may run through a third protein. Some results given as binding are weak or reduced against the parent protein; the word gives no strength. Sequences can lack the tags named with a protein.

Experiments:
[1] = target: T1, PXY-FLAG (plant construct) (Arabidopsis thaliana) (UniProt Q9FII5); experiment: co-IP; FLAG- and HA-tagged proteins coinfiltrated into Nicotiana leaves; 10 µM MG132 for 6 h; lysis in 50 mM Tris-HCl pH 7.6, 150 mM NaCl, 1% NP-40, 0.1% SDS; anti-HA or anti-FLAG (anti-DYKDDDDK) magnetic beads, 4 °C; western blot
T1 sequence: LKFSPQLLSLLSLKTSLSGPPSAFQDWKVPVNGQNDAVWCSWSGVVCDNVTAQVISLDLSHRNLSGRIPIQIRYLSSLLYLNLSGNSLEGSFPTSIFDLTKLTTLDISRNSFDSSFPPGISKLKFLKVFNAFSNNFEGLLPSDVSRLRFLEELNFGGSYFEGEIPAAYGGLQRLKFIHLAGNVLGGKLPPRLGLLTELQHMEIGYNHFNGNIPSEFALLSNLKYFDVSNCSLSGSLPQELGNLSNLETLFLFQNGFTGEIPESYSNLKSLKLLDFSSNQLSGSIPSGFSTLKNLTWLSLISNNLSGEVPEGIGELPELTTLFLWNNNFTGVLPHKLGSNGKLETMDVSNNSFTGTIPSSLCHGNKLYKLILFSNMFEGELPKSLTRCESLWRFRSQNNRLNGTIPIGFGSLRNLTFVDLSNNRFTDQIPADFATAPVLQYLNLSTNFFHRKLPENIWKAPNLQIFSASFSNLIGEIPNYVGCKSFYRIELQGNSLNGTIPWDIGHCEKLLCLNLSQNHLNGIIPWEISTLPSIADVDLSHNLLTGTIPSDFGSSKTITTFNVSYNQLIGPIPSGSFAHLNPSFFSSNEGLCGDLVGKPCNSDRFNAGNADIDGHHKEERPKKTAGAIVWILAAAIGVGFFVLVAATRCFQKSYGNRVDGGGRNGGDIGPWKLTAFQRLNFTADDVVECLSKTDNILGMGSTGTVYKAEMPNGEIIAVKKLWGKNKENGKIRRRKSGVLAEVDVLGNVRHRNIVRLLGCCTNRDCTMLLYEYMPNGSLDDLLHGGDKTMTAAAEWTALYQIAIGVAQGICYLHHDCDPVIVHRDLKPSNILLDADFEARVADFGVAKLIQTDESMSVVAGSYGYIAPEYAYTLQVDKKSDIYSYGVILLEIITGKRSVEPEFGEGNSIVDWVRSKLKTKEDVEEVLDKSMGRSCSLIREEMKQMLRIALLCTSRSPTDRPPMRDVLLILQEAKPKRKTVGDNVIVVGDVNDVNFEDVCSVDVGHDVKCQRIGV

[2] = target: T2, PXL1-flag (Arabidopsis thaliana) (UniProt Q9FRS6); experiment: co-IP; FLAG- and HA-tagged proteins cotransfected into Arabidopsis protoplasts from root cell suspension cultures; 10 µM MG132 for 6 h; lysis in 50 mM Tris-HCl pH 7.6, 150 mM NaCl, 1% NP-40, 0.1% SDS; anti-FLAG (anti-DYKDDDDK) or anti-HA magnetic beads, 4 °C; western blot
T2 sequence: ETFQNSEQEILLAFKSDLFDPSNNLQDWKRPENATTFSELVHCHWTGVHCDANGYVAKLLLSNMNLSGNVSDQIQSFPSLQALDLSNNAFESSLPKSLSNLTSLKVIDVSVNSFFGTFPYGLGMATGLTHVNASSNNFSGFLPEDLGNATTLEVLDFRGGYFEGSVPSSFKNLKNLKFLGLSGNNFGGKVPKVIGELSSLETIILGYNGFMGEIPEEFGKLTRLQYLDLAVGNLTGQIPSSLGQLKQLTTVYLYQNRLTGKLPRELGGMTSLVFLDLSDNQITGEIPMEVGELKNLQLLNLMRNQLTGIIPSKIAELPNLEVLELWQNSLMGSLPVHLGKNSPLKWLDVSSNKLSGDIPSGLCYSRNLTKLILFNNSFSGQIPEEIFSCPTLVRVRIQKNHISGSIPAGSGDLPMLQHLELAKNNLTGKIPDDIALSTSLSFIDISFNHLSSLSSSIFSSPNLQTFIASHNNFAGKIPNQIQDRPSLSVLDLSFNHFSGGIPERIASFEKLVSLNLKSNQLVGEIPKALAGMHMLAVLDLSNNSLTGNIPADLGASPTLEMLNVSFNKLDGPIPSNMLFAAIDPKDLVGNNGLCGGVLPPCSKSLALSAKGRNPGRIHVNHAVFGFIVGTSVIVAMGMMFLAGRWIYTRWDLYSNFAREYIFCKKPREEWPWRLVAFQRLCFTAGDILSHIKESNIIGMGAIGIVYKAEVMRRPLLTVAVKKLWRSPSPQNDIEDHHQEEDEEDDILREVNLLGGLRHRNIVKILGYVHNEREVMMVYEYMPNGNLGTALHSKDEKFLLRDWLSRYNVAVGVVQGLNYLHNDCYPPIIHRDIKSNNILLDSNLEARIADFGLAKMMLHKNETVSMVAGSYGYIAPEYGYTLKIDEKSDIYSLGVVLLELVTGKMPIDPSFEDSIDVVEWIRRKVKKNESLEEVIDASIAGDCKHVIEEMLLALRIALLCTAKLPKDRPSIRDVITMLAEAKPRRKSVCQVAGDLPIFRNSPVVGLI

[3] = target: T3, PXL2-flag (Arabidopsis thaliana) (UniProt Q9M0G7); experiment: as above
T3 sequence: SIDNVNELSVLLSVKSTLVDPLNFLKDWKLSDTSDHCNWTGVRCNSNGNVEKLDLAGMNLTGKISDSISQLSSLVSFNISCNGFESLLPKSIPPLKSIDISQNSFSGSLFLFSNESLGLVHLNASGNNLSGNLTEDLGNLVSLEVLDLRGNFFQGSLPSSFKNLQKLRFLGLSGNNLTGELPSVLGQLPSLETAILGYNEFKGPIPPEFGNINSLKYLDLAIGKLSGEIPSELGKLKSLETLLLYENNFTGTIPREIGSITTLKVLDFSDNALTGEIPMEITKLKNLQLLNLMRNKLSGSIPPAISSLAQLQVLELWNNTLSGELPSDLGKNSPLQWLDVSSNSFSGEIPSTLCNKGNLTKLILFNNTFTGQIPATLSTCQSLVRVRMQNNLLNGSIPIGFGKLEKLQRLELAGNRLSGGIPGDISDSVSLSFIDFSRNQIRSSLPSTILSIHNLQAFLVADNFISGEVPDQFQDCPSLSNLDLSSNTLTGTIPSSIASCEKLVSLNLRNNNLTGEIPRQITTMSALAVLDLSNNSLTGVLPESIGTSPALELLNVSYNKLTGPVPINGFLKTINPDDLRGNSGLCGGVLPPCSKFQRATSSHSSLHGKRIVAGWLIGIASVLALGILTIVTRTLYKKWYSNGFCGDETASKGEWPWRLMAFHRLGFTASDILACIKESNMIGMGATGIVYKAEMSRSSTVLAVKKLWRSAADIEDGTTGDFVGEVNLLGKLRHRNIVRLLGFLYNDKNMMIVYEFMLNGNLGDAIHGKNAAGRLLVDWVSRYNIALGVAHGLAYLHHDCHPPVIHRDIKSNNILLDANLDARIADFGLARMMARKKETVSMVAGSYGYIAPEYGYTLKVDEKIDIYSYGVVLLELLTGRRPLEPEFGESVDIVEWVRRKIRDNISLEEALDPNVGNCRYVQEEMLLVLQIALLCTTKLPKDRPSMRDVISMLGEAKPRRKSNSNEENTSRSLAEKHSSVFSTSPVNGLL

[4] = target: T1, PXY-FLAG (plant construct) (Arabidopsis thaliana); experiment: as above

Measured: binding

B1: ER-HA (receptor, UniProt Q42371 25-976)
chain: EEGATLLEIKKSFKDVNNVLYDWTTSPSSDYCVWRGVSCENVTFNVVALNLSDLNLDGEISPAIGDLKSLLSIDLRGNRLSGQIPDEIGDCSSLQNLDLSFNELSGDIPFSISKLKQLEQLILKNNQLIGPIPSTLSQIPNLKILDLAQNKLSGEIPRLIYWNEVLQYLGLRGNNLVGNISPDLCQLTGLWYFDVRNNSLTGSIPETIGNCTAFQVLDLSYNQLTGEIPFDIGFLQVATLSLQGNQLSGKIPSVIGLMQALAVLDLSGNLLSGSIPPILGNLTFTEKLYLHSNKLTGSIPPELGNMSKLHYLELNDNHLTGHIPPELGKLTDLFDLNVANNDLEGPIPDHLSSCTNLNSLNVHGNKFSGTIPRAFQKLESMTYLNLSSNNIKGPIPVELSRIGNLDTLDLSNNKINGIIPSSLGDLEHLLKMNLSRNHITGVVPGDFGNLRSIMEIDLSNNDISGPIPEELNQLQNIILLRLENNNLTGNVGSLANCLSLTVLNVSHNNLVGDIPKNNNFSRFSPDSFIGNPGLCGSWLNSPCHDSRRTVRVSISRAAILGIAIGGLVILLMVLIAACRPHNPPPFLDGSLDKPVTYSTPKLVILHMNMALHVYEDIMRMTENLSEKYIIGHGASSTVYKCVLKNCKPVAIKRLYSHNPQSMKQFETELEMLSSIKHRNLVSLQAYSLSHLGSLLFYDYLENGSLWDLLHGPTKKKTLDWDTRLKIAYGAAQGLAYLHHDCSPRIIHRDVKSSNILLDKDLEARLTDFGIAKSLCVSKSHTSTYVMGTIGYIDPEYARTSRLTEKSDVYSYGIVLLELLTRRKAVDDESNLHHLIMSKTGNNEVMEMADPDITSTCKDLGVVKKVFQLALLCTKRQPNDRPTMHQVTRVLGSFMLSEQPPAATDTSATLAGSCYVDEYANLKTPHSVNCSSMSASDAQLFLRFGQVISQNSE
binds: [1] | [2] | [3] | [4]

B2: ERL2-HA (receptor, UniProt Q6XAT2 28-967)
chain: MNNEGKALMAIKASFSNVANMLLDWDDVHNHDFCSWRGVFCDNVSLNVVSLNLSNLNLGGEISSALGDLMNLQSIDLQGNKLGGQIPDEIGNCVSLAYVDFSTNLLFGDIPFSISKLKQLEFLNLKNNQLTGPIPATLTQIPNLKTLDLARNQLTGEIPRLLYWNEVLQYLGLRGNMLTGTLSPDMCQLTGLWYFDVRGNNLTGTIPESIGNCTSFEILDVSYNQITGVIPYNIGFLQVATLSLQGNKLTGRIPEVIGLMQALAVLDLSDNELTGPIPPILGNLSFTGKLYLHGNKLTGQIPPELGNMSRLSYLQLNDNELVGKIPPELGKLEQLFELNLANNNLVGLIPSNISSCAALNQFNVHGNFLSGAVPLEFRNLGSLTYLNLSSNSFKGKIPAELGHIINLDTLDLSGNNFSGSIPLTLGDLEHLLILNLSRNHLNGTLPAEFGNLRSIQIIDVSFNFLAGVIPTELGQLQNINSLILNNNKIHGKIPDQLTNCFSLANLNISFNNLSGIIPPMKNFTRFSPASFFGNPFLCGNWVGSICGPSLPKSQVFTRVAVICMVLGFITLICMIFIAVYKSKQQKPVLKGSSKQPEGSTKLVILHMDMAIHTFDDIMRVTENLDEKYIIGYGASSTVYKCTSKTSRPIAIKRIYNQYPSNFREFETELETIGSIRHRNIVSLHGYALSPFGNLLFYDYMENGSLWDLLHGPGKKVKLDWETRLKIAVGAAQGLAYLHHDCTPRIIHRDIKSSNILLDGNFEARLSDFGIAKSIPATKTYASTYVLGTIGYIDPEYARTSRLNEKSDIYSFGIVLLELLTGKKAVDNEANLHQMILSKADDNTVMEAVDAEVSVTCMDSGHIKKTFQLALLCTKRNPLERPTMQEVSRVLLSLVPSPPPKKLPSPAKVQEGEERRESHSSDTTTPQWFVQFREDISKSSL
binds: [1] | [2] | [3] | [4]
